Measurements from PubChem BioAssay AID1508600 (Functional Genomics Laboratory (NCATS/FGL), 2020).
Out of some 53,000 sequences screened, about 3,700 (7%) were called active.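 Rule for the calls: active = gene knockdowns whose robust z-score for IL-1 alpha signal is at least 2 or at most -2, so actives lie on both sides; inactive = the rest.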 Some of the results follow.

Assay: Components of the Cytosolic LPS Sensing Pathway: Gene Identification via Genome-wide siRNA Screen;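 note: robust z of the log signal after scaling to non-targeting control siRNA wells of the plate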
Conditions: RAW264.7 macrophages, IL-1a HTRF, actives lie on both sides, screened at 100 nM (by protocol), cells primed 5 h with Pam3CSK4 first
Method in brief: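 RAW264.7; siRNA 100 nM final, RNAiMAX, 48h 37 degrees C; Pam3CSK4 5 h; LipidA + TransIT-TKO 24 h; IL-1a HTRF; CellTiter-Glo viability; robust z vs negative-control median.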

| Sequence | z-score |
| --- | --- |
| GGUUGCAUCUCUAGCUCCATT against Krt32 | inactive: 0.229 |
| GGAAAAUGACAGCGAAGAGTT against Helq | inactive: -0.34 |
| GGAUUCUCCGCACAGUUGGTT against Vps37b | inactive: 0.977 |
| CCAUAACGUAAGGCAUAUATT against Ghsr | inactive: 0.505 |
| CCCUUUAGAGGAAGUGAUATT against Gatm | inactive: -1.82 |
| GGGCUGAUGUGGGCUAAAUTT against Tmem38a | active: 2.47 |
| GGAAGUGAAUAAAUUCCUUTT against Crppa | inactive: -1.3 |
| GCACAAUGGUGUUAAGUCATT against Ado | active: 2.3 |
| GCACCAAUACAUUUGGACCTT against Nabp1 | inactive: 1.74 |
| GAACAGCAGAAUCUCGGCUTT against Cacng6 | inactive: -0.281 |
| GGGUCACUUGGAUUGUGGATT against Tmx2 | inactive: -0.0195 |
| GGCUCCUACCAAUCUCACUTT against Calcr | inactive: -0.548 |
| GGUUCUCCAGCAAGUGGAUTT against Mlh3 | inactive: 0.0388 |
| GGCCUGAAGCAGCUUAUCUTT against Chad | inactive: -1.56 |
| GGCCAAUGGGUUAUCUGGATT against Shisa5 | inactive: -0.0374 |
| CCGUGGAUUGUGGAAUAAUTT against Xpnpep3 | inactive: -1.39 |
| GGUUUGGAGGGACGCAAUATT against 2900005J15Rik | inactive: -0.0611 |
| GGUUUACCUUUAUGCAACATT against Tdrd12 | inactive: -1.03 |
| GGUUCUGGAAGAAGAAAAGTT against Irgq | inactive: 1.31 |
| GCUUACAGAUCAACUGAAGTT against Chst9 | inactive: 0.018 |
| GGGCAAUUCCAUGAAGCUGTT against Scn3b | inactive: -1.36 |
| GAAGUCUGCCAAAUUAAUGTT against Zfp182 | inactive: 0.342 |
| GGUGGGAAGAUAGAUAAAATT against Mamstr | active: 3.28 |
| GCAAUGGACCCAACUCAAGTT against 2810032G03Rik | inactive: 0.108 |
| GGACCAGAAACCGUGAUAATT against Immp2l | active: 3.96 |
| CCUGGAACGAAUAUUUGUGTT against Eml6 | inactive: 0.53 |
| GACCUGAAUAAAGACUGUCTT against Cort | inactive: 0.697 |

| Sequence | z-score |
| --- | --- |
| GGCCGAAGACCCUAAUUUATT against Cmtm7 | inactive: -0.373 |
| GGACUAGAUAUCACUUUUUTT against Oga | inactive: -0.0184 |
| CGGAGUGAAACUACUCAUUTT against Ckb | inactive: -0.773 |
| GCACUGAUGACGUGCAGAUTT against Rps5 | inactive: 1.24 |
| GGCACAAGCAGGAGAUAAATT against Serpinb2 | active: 2.05 |
| GCUAACAGGUCAUUUAUCCTT against Tmem123 | inactive: -0.245 |
| GGUAGGACUAACAAUAAAATT against Gpr4 | inactive: -0.0158 |
| GGAGAACACCAUCAGGUUUTT against Tnfrsf14 | inactive: -0.121 |
| CGGCUCACUAGGAUUAUACTT against Dnajc5g | inactive: 0.749 |
| GCUCAUUCGUCCUCACAGUTT against Olfr312 | inactive: -1.11 |
| GGAACCCUUUUCAAAAGAGTT against Bclaf3 | inactive: 0.112 |
| GGGAAUCUGGAGUGUCUGATT against Uaca | inactive: 0.358 |
| GCUGAUAGACUCACAGAGGTT against Midn | inactive: 0.0964 |
| CCAAGUUACAGGAACAAGUTT against Olfr1504 | inactive: 0.14 |
| GCCAUUGGUACCAUAACAUTT against Tekt3 | inactive: 0.147 |
| CCCACCUAUGGGCUAUUAUTT against Cdip1 | inactive: -1.18 |
| GGCUUGUCGUCCUGGUGUATT against Rprd2 | inactive: 0.219 |
| GGUCAAAACCAUCUACCGCTT against Rab3a | inactive: 0.479 |
| GGUAACUCCAUACUAUAAUTT against Pcdhb4 | inactive: 0.338 |
| GGAAUCCUUUUCUUUCUAATT against Slc13a1 | inactive: 0.0492 |
| GGAUGGCAUAGUUCUUGGATT against Psmb7 | inactive: -0.756 |
| GCUACUUAAAUACAUCCGCTT against Pdpk1 | inactive: 0.344 |
| GGAGCCUUUACCAUUGACUTT against Osmr | inactive: -0.98 |
| GGAAAAGAAGUUUAAACGGTT against Svs6 | inactive: -0.413 |
| GGUCAACAAGUAUAUCAACTT against Tlcd1 | inactive: 0.226 |
| GGAUGUCAUCGAGGAAUACTT against Rps12 | inactive: -0.0791 |
| GCGGACCACCAUUAUCCUUTT against Polr3gl | inactive: -0.765 |

3 records picked at random from those above:

| Sequence | z-score |
| --- | --- |
| GGUUCUGGAAGAAGAAAAGTT against Irgq | inactive: 1.31 |
| GAACAGCAGAAUCUCGGCUTT against Cacng6 | inactive: -0.281 |
| GCACUGAUGACGUGCAGAUTT against Rps5 | inactive: 1.24 |
